# Source: PMC12357052
# Sequences of proteins named here, by UniProt entry; tags and fusion partners are left off.
# UniProt O43516: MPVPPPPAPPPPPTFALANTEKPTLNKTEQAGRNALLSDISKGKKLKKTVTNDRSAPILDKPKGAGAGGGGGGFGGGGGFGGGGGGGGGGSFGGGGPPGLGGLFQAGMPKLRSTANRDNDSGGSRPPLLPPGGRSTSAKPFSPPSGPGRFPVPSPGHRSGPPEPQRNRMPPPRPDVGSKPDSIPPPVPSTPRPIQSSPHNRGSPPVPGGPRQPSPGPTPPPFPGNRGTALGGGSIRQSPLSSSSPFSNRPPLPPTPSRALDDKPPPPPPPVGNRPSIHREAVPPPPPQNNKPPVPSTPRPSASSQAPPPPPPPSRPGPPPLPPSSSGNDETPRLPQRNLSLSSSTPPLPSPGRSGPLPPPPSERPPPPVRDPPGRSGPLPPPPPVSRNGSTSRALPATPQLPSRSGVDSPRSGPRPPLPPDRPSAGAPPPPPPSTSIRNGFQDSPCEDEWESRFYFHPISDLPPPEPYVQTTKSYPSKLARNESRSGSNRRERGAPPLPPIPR
# UniProt Q15149: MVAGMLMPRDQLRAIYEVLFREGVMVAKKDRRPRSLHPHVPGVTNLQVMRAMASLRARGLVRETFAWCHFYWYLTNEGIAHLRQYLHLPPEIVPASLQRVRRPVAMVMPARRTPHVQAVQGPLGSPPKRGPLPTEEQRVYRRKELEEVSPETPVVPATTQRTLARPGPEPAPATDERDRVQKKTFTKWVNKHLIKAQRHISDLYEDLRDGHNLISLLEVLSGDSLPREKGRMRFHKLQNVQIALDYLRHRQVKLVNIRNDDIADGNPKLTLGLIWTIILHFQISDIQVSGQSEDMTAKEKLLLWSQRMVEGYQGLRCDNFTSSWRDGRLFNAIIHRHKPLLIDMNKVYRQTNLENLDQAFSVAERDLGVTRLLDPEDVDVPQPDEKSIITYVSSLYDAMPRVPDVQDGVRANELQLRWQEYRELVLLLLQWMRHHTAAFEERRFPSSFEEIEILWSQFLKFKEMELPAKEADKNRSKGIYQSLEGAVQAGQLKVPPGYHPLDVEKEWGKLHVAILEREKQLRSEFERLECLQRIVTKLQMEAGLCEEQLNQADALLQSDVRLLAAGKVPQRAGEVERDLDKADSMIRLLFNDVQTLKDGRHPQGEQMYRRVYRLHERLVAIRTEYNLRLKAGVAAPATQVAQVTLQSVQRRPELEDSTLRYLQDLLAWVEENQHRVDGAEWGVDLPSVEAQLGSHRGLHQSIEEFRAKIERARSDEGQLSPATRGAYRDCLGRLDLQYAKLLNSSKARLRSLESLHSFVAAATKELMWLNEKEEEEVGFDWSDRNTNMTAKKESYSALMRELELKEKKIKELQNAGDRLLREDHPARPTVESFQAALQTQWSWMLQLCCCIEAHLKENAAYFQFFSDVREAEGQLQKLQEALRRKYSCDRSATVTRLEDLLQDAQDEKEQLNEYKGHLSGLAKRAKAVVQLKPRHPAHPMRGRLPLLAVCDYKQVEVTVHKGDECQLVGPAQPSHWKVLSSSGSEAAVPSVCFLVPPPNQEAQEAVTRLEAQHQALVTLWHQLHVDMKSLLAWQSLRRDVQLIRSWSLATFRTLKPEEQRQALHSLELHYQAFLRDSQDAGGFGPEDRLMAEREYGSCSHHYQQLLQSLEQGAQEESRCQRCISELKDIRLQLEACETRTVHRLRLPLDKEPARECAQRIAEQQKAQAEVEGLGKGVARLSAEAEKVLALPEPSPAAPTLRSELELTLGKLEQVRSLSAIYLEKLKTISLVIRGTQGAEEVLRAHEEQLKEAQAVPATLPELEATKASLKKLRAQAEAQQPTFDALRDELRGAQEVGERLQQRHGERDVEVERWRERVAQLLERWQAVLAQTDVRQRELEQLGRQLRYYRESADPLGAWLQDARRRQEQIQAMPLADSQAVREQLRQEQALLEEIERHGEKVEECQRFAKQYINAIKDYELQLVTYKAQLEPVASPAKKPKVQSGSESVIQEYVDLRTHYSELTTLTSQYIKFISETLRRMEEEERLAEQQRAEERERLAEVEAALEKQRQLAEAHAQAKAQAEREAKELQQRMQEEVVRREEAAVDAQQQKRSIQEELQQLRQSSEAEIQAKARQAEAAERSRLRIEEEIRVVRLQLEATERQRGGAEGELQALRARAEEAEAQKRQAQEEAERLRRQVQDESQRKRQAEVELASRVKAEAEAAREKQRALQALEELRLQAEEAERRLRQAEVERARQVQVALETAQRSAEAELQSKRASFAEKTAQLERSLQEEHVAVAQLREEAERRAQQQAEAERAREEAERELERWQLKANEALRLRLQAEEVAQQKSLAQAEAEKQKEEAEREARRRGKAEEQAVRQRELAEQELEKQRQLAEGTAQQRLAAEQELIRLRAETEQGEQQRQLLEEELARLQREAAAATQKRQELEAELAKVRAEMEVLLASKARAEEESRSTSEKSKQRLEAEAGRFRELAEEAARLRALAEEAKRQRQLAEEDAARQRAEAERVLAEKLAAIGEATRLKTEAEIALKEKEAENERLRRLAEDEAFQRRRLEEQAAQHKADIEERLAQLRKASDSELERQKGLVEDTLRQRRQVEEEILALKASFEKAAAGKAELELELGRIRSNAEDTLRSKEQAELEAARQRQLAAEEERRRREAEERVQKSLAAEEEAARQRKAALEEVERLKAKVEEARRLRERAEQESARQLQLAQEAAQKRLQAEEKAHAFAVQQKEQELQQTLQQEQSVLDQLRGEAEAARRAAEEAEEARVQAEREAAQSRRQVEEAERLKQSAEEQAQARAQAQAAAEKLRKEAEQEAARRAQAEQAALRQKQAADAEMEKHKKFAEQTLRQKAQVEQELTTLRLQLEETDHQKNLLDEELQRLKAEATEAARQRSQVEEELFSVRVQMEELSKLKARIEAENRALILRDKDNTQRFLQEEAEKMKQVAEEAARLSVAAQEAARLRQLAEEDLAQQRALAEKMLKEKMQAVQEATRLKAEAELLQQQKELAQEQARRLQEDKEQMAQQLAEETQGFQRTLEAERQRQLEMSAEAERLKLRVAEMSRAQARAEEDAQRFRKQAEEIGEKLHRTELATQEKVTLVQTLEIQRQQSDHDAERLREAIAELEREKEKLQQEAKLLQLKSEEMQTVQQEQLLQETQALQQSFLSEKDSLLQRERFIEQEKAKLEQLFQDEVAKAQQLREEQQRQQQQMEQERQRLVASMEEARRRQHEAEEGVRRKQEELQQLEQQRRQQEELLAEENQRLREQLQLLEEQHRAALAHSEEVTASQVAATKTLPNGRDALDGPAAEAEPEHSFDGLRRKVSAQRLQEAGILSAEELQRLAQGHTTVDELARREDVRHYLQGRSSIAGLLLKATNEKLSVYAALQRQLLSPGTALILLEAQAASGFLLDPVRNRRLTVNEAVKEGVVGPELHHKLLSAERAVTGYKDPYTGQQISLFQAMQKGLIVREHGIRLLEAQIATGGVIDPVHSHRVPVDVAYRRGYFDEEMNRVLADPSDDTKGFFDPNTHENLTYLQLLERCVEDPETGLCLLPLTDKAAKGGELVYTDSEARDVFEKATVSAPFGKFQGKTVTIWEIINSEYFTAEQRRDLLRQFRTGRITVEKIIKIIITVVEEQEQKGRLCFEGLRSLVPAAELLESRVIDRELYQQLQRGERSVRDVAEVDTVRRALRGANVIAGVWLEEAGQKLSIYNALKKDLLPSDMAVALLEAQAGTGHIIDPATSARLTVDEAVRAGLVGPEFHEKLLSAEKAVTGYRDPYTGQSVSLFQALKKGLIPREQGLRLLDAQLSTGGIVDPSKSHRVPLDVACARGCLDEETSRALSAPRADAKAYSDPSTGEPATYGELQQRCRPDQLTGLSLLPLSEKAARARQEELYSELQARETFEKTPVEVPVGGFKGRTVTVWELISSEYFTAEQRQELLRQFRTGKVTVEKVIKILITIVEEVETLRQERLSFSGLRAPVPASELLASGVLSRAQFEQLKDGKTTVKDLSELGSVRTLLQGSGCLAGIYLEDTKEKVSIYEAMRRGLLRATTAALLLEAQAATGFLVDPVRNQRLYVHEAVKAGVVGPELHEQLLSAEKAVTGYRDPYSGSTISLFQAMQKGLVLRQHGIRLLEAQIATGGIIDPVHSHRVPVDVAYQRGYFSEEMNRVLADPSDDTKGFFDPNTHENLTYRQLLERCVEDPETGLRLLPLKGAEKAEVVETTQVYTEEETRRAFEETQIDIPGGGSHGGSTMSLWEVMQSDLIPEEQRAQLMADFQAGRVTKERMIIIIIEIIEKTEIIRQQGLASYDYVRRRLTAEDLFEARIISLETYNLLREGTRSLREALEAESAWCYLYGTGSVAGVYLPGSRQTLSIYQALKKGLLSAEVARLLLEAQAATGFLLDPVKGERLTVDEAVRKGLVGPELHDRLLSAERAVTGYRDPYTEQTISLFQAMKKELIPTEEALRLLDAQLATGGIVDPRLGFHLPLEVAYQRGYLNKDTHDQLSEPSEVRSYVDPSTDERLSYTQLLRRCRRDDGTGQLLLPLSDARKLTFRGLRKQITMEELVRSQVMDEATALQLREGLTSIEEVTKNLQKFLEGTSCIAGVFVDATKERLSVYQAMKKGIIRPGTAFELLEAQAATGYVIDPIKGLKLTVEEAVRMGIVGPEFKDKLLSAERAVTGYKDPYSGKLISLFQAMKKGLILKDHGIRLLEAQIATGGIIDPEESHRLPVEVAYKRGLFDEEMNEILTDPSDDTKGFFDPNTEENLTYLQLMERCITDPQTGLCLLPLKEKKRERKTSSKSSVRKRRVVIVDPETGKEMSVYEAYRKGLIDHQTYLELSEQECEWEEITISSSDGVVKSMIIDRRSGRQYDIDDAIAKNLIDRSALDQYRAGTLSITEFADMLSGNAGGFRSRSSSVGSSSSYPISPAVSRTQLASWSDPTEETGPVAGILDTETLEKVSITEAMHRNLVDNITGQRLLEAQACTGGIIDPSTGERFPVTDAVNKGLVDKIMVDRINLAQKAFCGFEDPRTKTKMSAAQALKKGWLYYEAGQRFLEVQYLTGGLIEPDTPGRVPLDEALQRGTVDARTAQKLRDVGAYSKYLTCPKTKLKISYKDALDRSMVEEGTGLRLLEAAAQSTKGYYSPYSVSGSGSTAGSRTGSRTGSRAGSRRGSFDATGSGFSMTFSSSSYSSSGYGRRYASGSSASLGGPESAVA
# UniProt P12814: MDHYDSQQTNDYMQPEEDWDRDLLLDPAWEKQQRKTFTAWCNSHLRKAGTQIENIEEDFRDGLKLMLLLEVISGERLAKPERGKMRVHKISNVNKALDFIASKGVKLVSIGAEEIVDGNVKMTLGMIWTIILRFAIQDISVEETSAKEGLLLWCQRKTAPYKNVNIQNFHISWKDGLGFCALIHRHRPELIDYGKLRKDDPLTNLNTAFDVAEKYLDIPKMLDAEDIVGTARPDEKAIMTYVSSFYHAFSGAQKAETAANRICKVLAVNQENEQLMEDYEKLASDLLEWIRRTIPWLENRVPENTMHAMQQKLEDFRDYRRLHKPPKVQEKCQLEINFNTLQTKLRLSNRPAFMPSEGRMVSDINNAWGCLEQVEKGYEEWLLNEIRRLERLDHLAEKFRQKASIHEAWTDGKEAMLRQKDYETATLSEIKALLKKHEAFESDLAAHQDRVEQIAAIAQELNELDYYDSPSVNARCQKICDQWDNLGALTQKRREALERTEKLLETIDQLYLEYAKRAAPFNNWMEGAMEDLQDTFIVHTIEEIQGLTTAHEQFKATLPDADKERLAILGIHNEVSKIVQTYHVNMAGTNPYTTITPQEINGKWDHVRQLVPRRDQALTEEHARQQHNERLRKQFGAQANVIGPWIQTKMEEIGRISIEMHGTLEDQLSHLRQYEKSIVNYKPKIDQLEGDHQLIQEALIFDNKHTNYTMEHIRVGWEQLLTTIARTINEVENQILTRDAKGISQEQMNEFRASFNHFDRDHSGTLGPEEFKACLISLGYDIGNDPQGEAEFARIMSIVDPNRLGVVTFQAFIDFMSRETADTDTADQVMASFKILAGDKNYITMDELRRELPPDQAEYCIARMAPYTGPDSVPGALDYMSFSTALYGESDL
# UniProt O00401: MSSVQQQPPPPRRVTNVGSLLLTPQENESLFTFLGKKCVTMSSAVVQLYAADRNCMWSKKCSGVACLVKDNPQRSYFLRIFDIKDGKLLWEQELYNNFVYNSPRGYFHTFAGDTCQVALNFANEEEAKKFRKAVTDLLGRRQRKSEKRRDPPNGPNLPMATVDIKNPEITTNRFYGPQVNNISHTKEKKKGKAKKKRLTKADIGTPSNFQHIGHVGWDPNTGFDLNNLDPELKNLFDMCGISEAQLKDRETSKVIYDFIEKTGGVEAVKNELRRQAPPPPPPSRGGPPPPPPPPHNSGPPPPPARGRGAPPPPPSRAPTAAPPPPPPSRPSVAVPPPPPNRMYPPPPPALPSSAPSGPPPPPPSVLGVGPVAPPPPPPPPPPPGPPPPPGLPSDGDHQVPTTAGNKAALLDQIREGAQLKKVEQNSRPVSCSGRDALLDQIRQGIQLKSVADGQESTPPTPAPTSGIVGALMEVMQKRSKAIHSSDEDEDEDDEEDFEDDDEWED
# Results are given in words; binding and its absence hold for the method and conditions named. In cells and extracts the contact can be indirect. A yes stands for co-enrichment or nearness to the bait. Other partners may have been found.
# Target: WAS/WASL interacting protein family member 1 (WIPF1), wild type, overexpressed (WIPF1-OE) (human) (UniProt O43516)
# Assay: affinity purification with mass spectrometry; Proteins immunoprecipitated with a WIPF1 antibody from WIPF1-OE HTR-8/SVneo cells; IgG immunoprecipitate as control; Easy nLC1200/Q Exactive, Mascot score >=20
row,Substance,binding
1,PLEC (from UniProt Q15149 1-4684),binds
2,alpha-actinin 4 (ACTN4) (from UniProt O43707 1-911),binds
3,talin 1 (TLN1) (from UniProt Q9Y490 1-2541),binds

# The remaining lines, values ahead:
row,binding,Substance
1,binds,ACTN1 (from UniProt P12814 1-892)
2,binds,WASL (from UniProt O00401 1-505)
